From patent US20180036314A1, “METHODS AND COMPOSITIONS FOR TREATING PERIPHERAL VASCULAR DISEASE” (Exodos Life Sciences Limited Partnership, priority 2009, published 2018)

Experiments:
[1] = test system: hands of normal human volunteers; experiment: Skin temperature recovery of the hand after cold water immersion (infrared camera); type: in vivo; settings: before treatment
Procedure: The effects of L-arginine and sidelnafil citrate in the regulation of human blood flow was determined by measuring the rate of skin temperature recovery in the hands of normal human volunteers following a period of cold water immersion. The measurements were performed at room temperature 25° C., for a period of 30 minutes after acclimatization. L-arginine monohydrate and sildenafile citrate were prepared in commercially available Veecogel Cream base formulation containing Krisgel 100™, Coconut oil, Capryloic Acid, Triglicerides, Squalane, Boric Acid, Polysorbate 80, Sorbitan Monooleate 80, Simethicone, Butylated hydroxytoluene. Sildenafil citrate 1% was dissolved in propylene glycol 2% and combine with base with constant mixing. L-arginine monohydrate 10% and 1% were dissolve in 2% propylene glycol and combine with the Veecogel described above.
Skin temperature was measured with an infrared camera FLIR T300 (FLIR Systems, Inc., Boston, Mass., USA). Changes in skin temperature were determined after cooling of hand for 2 minutes in ice water by analyzing individual thermal images with FLIR Quick Report software. The effects of test drugs were determined following application of substance to the cooled hand. […]

[2] = test system: pig skin; experiment: Local cutaneous blood flow in pigs after topical application (laser Doppler); type: in vivo
Procedure: A stable depth of sedation was maintained with continuous intravenous methohexital, titrated to a minimal lid reflex and a regular respiratory rate. Throughout the experiment, the animals spontaneously breathed through a “snout-cone” connected to a standard anesthesia machine delivering 100% oxygen. The dorsal surface of the animal was cleaned with tepid water. Ten sites (2×2 cm each) were defined on the dorsal surface of the animal with permanent marker. […] MAP was recorded at the start and end of each Doppler scan. A dose volume of 0.1 mL of vehicle, control, or test article was applied to each site. L-arginine monohydrate and sildenafil citrate were prepared in commercially available Veecogel Cream base formulation (available from PCCA, 9901 South […], Houston, Tex., USA) containing […], Coconut oil, Capryloic Acid, […], Squalane, Boric Acid, Polysorbate 80, Sorbitan Monooleate 80, Simethicone, Butylated hydroxytoluene. Sildenafil citrate 1% was dissolved in propylene glycol 2% and combine with base with constant mixing. L-arginine monohydrate 10% and 1% were dissolved in 2% propylene glycol and combined with the Veecogel described above. No two adjacent sites were administered the same concentration of any control or test article and administration was temporally spaced to allow at least 2 minutes between dosing each site. […] Blood flow at the untreated, control site was measured immediately prior to and immediately after the measurements at the treated sites. […] Serum levels of local drugs were not measured. […] Changes in blood flow are expressed as a percent change from control blood flow. […] Thus, the change in cutaneous blood flow at a treatment site can be determined by the formula: [formula] where Sx is the blood flow at an injected site X min after application, So is the baseline flow at that site prior to application, Cx is the flow at the control site X min after the application, and Co is the blood flow at the control site at the same time that the baseline flow measurements were made.

Structure (SMILES)	Baseline Temp (starting hand temperature after cooling for 2 minutes) ([1]; dose 10% W/v) [°C]	Local cutaneous blood flow, FLOW (MV), Baseline ([2]; dose 1%) [MV]	Local cutaneous blood flow, FLOW (MV), Baseline ([2]; dose 10%) [MV]	Baseline Temp (starting hand temperature after cooling for 2 minutes) ([1]; dose 1% W/v) [°C]
N=C(N)NCCC[C@H](N)C(=O)O [Arginine, L-arginine]	12	0.52	3.4	–
CCCc1nn(C)c2c(=O)[nH]c(-c3cc(S(=O)(=O)N4CCN(C)CC4)ccc3OCC)nc12 [Sildenafil, 5-[2-ethoxy-5-(4-methyl-1-piperazinylsulphonyl)phenyl]-1-methyl-3-n-propyl-1,6-dihydro-7H-pyrazolo[4,3-d]pyrimidin-7-one]	–	−13.58	–	14
